Values quoted from earlier work, collected in patent publication US8097646B2, “Ophthalmic preparation containing menthyl ester of indomethacin” (AlphaRx, Inc., priority 2005, dated 2012).

Conditions: cited from earlier work

For `COc1ccc2c(c1)c(CC(=O)O)c(C)n2C(=O)c1ccc(Cl)cc1` [Indomethacin, 1-(4-Chlorobenzoyl)-5-Methoxy-2-methyl-1H-indole-3-acetic acid], the “Solubility in water (background statement)” value is given as “practically insoluble”.
